Library screen at single concentrations

Sequences of proteins named here, by UniProt entry; tags and fusion partners are left off. Residues count along the entry.
UniProt I6X8D2, whole entry: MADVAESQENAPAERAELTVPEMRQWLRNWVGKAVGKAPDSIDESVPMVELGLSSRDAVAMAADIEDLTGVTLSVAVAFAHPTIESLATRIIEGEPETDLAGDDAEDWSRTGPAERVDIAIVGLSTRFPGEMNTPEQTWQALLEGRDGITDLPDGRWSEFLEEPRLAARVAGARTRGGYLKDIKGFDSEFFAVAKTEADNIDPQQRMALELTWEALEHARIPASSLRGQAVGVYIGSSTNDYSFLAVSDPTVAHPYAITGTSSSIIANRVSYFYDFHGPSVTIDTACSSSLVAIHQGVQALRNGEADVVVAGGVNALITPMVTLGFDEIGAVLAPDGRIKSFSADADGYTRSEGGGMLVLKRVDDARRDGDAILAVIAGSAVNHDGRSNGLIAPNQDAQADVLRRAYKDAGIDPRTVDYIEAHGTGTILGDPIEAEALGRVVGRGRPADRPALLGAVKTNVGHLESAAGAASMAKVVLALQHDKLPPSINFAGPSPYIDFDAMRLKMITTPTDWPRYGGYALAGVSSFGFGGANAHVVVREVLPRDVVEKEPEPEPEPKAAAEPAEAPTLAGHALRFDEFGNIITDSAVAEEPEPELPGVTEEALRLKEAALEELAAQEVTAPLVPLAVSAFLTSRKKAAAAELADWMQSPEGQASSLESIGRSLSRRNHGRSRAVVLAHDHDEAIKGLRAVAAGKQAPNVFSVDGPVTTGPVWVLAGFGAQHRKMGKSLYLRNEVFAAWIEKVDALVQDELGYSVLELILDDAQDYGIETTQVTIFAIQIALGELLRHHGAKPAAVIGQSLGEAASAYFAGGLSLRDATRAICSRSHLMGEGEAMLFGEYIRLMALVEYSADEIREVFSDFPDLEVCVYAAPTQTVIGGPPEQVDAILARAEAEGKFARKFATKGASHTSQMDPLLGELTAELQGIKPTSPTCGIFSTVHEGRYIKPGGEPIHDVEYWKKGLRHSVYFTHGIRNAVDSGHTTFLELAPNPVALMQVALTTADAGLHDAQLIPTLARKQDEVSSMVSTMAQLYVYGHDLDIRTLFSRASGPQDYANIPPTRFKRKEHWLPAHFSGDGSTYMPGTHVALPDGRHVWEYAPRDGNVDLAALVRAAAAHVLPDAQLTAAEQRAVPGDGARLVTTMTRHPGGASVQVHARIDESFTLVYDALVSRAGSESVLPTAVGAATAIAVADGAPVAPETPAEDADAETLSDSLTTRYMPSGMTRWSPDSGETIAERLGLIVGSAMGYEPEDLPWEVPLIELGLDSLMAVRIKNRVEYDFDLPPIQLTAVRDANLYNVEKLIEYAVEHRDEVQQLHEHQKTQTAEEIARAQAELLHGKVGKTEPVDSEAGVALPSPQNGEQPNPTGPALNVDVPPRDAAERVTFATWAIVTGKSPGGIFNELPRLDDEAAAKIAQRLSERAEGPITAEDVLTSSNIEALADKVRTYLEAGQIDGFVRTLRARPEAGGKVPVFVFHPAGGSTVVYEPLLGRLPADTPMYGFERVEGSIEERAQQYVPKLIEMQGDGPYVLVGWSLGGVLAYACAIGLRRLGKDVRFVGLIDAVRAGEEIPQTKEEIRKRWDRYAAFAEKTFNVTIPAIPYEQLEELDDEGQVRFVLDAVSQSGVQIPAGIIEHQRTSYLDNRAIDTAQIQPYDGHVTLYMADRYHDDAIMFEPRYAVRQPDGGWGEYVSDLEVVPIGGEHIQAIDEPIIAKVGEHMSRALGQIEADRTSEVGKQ
UniProt Q8IDJ8, 1-583: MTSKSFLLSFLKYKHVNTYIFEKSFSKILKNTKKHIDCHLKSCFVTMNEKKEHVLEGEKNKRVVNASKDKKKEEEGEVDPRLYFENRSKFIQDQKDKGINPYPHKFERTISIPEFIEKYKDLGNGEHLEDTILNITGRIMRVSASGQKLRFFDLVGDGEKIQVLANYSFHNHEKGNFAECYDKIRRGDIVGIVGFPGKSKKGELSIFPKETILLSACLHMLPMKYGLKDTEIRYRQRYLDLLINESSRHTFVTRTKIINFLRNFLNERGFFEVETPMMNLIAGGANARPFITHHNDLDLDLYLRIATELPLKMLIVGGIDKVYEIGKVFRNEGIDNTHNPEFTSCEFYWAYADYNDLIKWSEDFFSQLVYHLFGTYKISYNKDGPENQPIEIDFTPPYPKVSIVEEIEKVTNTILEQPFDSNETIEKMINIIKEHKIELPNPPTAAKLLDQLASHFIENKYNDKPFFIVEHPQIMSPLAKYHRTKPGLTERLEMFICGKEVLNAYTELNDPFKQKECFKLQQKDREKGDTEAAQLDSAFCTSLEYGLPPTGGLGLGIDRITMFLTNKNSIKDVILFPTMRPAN
UniProt A4I591, 1-473: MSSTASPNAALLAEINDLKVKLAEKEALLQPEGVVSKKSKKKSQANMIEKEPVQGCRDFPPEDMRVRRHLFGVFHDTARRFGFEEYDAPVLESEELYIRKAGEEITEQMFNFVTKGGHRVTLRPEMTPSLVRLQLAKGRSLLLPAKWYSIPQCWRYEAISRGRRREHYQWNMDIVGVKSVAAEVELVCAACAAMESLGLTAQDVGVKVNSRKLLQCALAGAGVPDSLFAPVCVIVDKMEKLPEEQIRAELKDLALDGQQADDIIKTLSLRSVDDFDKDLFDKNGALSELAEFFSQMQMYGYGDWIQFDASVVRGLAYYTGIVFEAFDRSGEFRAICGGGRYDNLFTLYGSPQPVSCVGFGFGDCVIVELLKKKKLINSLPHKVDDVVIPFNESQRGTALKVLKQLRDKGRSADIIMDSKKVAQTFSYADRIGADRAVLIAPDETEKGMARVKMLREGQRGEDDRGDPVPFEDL
UniProt P9WFT3, whole entry: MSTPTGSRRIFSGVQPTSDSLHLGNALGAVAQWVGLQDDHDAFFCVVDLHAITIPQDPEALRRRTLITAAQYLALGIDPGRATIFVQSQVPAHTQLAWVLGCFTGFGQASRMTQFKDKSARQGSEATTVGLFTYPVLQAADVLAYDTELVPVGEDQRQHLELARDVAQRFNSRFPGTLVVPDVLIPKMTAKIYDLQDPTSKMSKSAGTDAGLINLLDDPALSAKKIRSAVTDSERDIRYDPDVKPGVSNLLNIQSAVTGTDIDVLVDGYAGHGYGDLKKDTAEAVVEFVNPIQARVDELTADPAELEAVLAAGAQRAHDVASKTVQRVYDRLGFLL

Data taken from ChEMBL document CHEMBL3988442, “University of Dundee, Small-Polar-MMV Screening Library” (2021).

Pks13 thioesterase: 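Polyketide synthase Pks13, Mycobacterium tuberculosis (UniProt I6X8D2). Enzyme assay of the thioesterase domain of polyketide synthase 13; the read-out is not stated. Tested at 30 µM. Higher reads as stronger inhibition (inferred from which compounds were picked for retests). Of about 67,000 compounds tested this way, about 300 (0.46%) reached 50% or more in at least one test.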
PfKRS1: 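Enzyme assay of the cytosolic lysyl-tRNA synthetase in 384-well plates, read by luminescence. Target: Lysine-tRNA ligase, Plasmodium falciparum 3D7 (UniProt Q8IDJ8). Concentration: 30 µM. Direction is inferred from only a few compounds that gave an IC50; most scored high, so higher reads as stronger inhibition. Of about 69,000 compounds tested this way, about 49 (0.071%) reached 50% or more in at least one test.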
LiHisRS: 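Enzyme assay of histidyl-tRNA synthetase; the read-out is not stated. Target: Histidine-tRNA ligase, Leishmania infantum (UniProt A4I591). Concentration: 30 µM. The record gives no direction; compounds that gave an IC50 in retests scored well above the rest, so higher reads as stronger inhibition. The assay is labelled LdHisRS but filed under L. infantum. Size under these conditions: about 69,000 compounds, about 410 of them at 50% or above in at least one test.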
MtTrpRS: 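Tryptophan-tRNA ligase, Mycobacterium tuberculosis (UniProt P9WFT3). Enzyme assay of tryptophanyl-tRNA synthetase; the read-out is not stated. Concentration: 10 µM. Higher most likely means stronger inhibition; the record gives no direction and few retests gave an IC50. Of about 65,000 compounds tested this way, about 64 (0.098%) reached 50% or more in at least one test.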

Each number is a percent effect as filed.
How 0% and 100% were set is not recorded. Most values in the screen are low, and negative values occur.
Compounds were drawn at random from those tested, without regard to their results.

SMILES: COCCNC(=O)Nc1cccc2c1CCN(S(C)(=O)=O)C2
Pks13 thioesterase: 1.204%
PfKRS1: 2.104%
LiHisRS: 15.18%
MtTrpRS: 1.955%

SMILES: Cc1cc(CN2CCC(CNC(=O)c3noc4c3CCCC4)C2)[nH]n1 (stereo unspecified)
Pks13 thioesterase: 10.27%
PfKRS1: -2.263%
LiHisRS: 35.53%
MtTrpRS: 6.712%

SMILES: c1coc(CN2C[C@@H]3OCCN(CCN4CCCC4)[C@@H]3C2)c1
Pks13 thioesterase: -17.37%
PfKRS1: 5.666%
LiHisRS: 7.563%
MtTrpRS: -0.3666%

SMILES: CN(C)C(=O)CN1CCOCC2(CCN(CC3CCOC3)CC2)C1 (stereo unspecified)
Pks13 thioesterase: 9.79%
PfKRS1: -0.5333%
LiHisRS: -1.754%
MtTrpRS: 4.581%

SMILES: CN(C(=O)Cn1nc(-c2ccc(Cl)cc2)ccc1=O)C1CCS(=O)(=O)C1 (stereo unspecified)
Pks13 thioesterase: 1.285%
PfKRS1: 6.983%
LiHisRS: 18.42%
MtTrpRS: -0.6303%

SMILES: Cc1nnc(CN(C)C2CCCN(Cc3noc(C4CC4)n3)C2)o1 (stereo unspecified)
Pks13 thioesterase: -14.27%
PfKRS1: 2.646%
LiHisRS: 14.91%
MtTrpRS: 1.591%

SMILES: COCC(=O)N1CCCC(c2csc(NC(C)=O)n2)C1 (stereo unspecified)
Pks13 thioesterase: -5.659%
PfKRS1: 0.3191%
LiHisRS: 7.586%
MtTrpRS: -2.51%

SMILES: O=C(CCc1ccccc1)NCC1CCN(Cc2ccccc2)CC1
Pks13 thioesterase: -17.27%
PfKRS1: 1.5%
LiHisRS: 26.97%
MtTrpRS: 2.201%

SMILES: N#Cc1c(F)cccc1N1CCN(S(=O)(=O)c2cccs2)CC1
Pks13 thioesterase: 23.06%
PfKRS1: 3.002%
LiHisRS: 0%
MtTrpRS: -0.4989%

SMILES: Cc1cc(C(=O)N2CCn3c(COCC4CCCC4)cnc3C2C)on1 (stereo unspecified)
Pks13 thioesterase: -3.06%
PfKRS1: 2.227%
LiHisRS: 9.091%
MtTrpRS: -2.267%

SMILES: Cc1ccsc1C(=O)N1CCC(O)(CN2CCc3ccccc3C2)C1 (stereo unspecified)
Pks13 thioesterase: 13.94%
PfKRS1: 2.967%
LiHisRS: 21.74%

SMILES: Cc1cnn(CC2CCCN2C(=O)c2cc3ccccc3[nH]c2=O)c1 (stereo unspecified)
Pks13 thioesterase: -11.92%
PfKRS1: -4.444%
LiHisRS: -5.333%
MtTrpRS: -0.5473%

SMILES: Cc1ccc(NC2CCN(C(=O)CCCn3ccnc3C)CC2)nn1
Pks13 thioesterase: -21.03%
PfKRS1: 0.3857%
LiHisRS: 14.04%
MtTrpRS: 2.792%

SMILES: COc1cccc(OC)c1C(=O)NCC(c1cccn1C)N1CCCC1 (stereo unspecified)
Pks13 thioesterase: -10.85%
PfKRS1: 0.8055%
LiHisRS: 21.92%
MtTrpRS: 2.036%

SMILES: Cc1noc(C2CCCN(CC(=O)N3CCNC(=O)C3)C2)n1 (stereo unspecified)
Pks13 thioesterase: 0.1199%
PfKRS1: 8.28%
LiHisRS: 16.13%
MtTrpRS: 2.768%

SMILES: O=C(c1cccnc1)N1CCOC2(COCCN(c3cncnc3)C2)C1 (stereo unspecified)
Pks13 thioesterase: -28.44%
PfKRS1: 0.7301%
LiHisRS: 10.53%
MtTrpRS: -1.082%

SMILES: CC(C)n1nc2c(cc1=O)CN(CCCN1CCCC1=O)CC2
Pks13 thioesterase: 16.59%
PfKRS1: 4.143%
LiHisRS: 23.68%
MtTrpRS: 3.249%

SMILES: Cc1ccc(N2CCCC(NCc3ccc(-n4ccnc4)cc3)C2)nn1 (stereo unspecified)
Pks13 thioesterase: -5.934%
PfKRS1: 3.526%
LiHisRS: 4.959%
MtTrpRS: -0.2441%

SMILES: Cn1ccnc1-c1noc(NCc2ccc(Br)cc2)n1
Pks13 thioesterase: -16.46%
PfKRS1: 4.398%
LiHisRS: 10.64%
MtTrpRS: 3.997%

SMILES: CCC1CCCCCN1C(=O)c1nnc2ccccc2c1N (stereo unspecified)
Pks13 thioesterase: -10.41%
PfKRS1: -2.426%
LiHisRS: 5.714%
MtTrpRS: -3.284%

SMILES: COCCN(Cc1ccncc1)C(=O)C1COc2ccccc2C1 (stereo unspecified)
PfKRS1: 5.764%
LiHisRS: 16.67%
MtTrpRS: 1.718%

SMILES: Cc1nc(-c2ccsc2)ccc1C(=O)NCCC(=O)N1CCCC1
Pks13 thioesterase: -2.708%
PfKRS1: 4.911%
LiHisRS: 15.2%
MtTrpRS: -1.258%

SMILES: CC(C)NC(=O)NC[C@@]1(COc2cnccn2)C[C@@H](O)[C@@H](O)C1
Pks13 thioesterase: -20.73%
PfKRS1: 10.06%
LiHisRS: 24.32%
MtTrpRS: -0.8391%

SMILES: Cc1ccsc1CN(Cc1ccccn1)CC(O)CO (stereo unspecified)
Pks13 thioesterase: -8.465%
PfKRS1: 3.429%
LiHisRS: 8.642%
MtTrpRS: 4.965%

SMILES: c1nn(C2CCCCC2)cc1-c1cncn1CCCN1CCCCC1
Pks13 thioesterase: -12.16%
PfKRS1: 1.613%
LiHisRS: 11.19%
MtTrpRS: 8.681%

SMILES: O=C(NCCN1CCOCC1)c1ccnn1-c1ccc2ccccn12
Pks13 thioesterase: 14.34%
PfKRS1: 9.341%
LiHisRS: 8.621%
MtTrpRS: 0.9709%

SMILES: O=C(Nc1ccccc1-c1cccs1)N1CCOCC1
Pks13 thioesterase: -36.21%
PfKRS1: 0.01205%
LiHisRS: 5.714%
MtTrpRS: -0.3096%

SMILES: CN1CCC(c2nnc(CN3CCOCC3)n2C)CC1
Pks13 thioesterase: -3.415%
PfKRS1: 6.602%
LiHisRS: 15.66%
MtTrpRS: 0.2719%

Once more, the final 2:

{"smiles": "O=C(Nc1ccccc1-c1cccs1)N1CCOCC1", "Pks13 thioesterase": -36.21, "PfKRS1": 0.01205, "LiHisRS": 5.714, "MtTrpRS": -0.3096}
{"smiles": "CN1CCC(c2nnc(CN3CCOCC3)n2C)CC1", "Pks13 thioesterase": -3.415, "PfKRS1": 6.602, "LiHisRS": 15.66, "MtTrpRS": 0.2719}